Experiment [1] addresses Flag-tagged TREK1 isotype 1 (mouse). In words: co-IP; HEK293T cells co-transfected with Flag-tagged channel and GFP-β-COP, RIPA lysate, IP with anti-Flag, blot with anti-GFP.
Experiment [2] deals with Flag-tagged TREK1NΔ4 (only the N4 region deleted from the N-terminus of TREK1) (mouse) (UniProt P97438). Described as above.
The target in experiment [3] is Flag-tagged TREK1ΔN (mouse). The experiment is described as above.
Experiment [4] deals with Flag-tagged TREK1ΔN1 (mouse). The description is as above.
For experiment [5], the target named is Flag-tagged TREK1ΔN1,2 (mouse). Described as above.
Experiment [6] has as its target VC-TREK1 isotype 1 (C-terminal portion of Venus fused to TREK1 isotype 1) (mouse). Kind of experiment: split reporter; BiFC with split Venus (VN173, VC155) in co-transfected HEK293T cells, fixed 24 h after transfection, confocal microscopy.

Protein sequences, listed by entry. Tags and fused reporters are not part of them. Lines headed by an entry give the natural chain unless they say otherwise; changes in a name come on top.
UniProt P97438: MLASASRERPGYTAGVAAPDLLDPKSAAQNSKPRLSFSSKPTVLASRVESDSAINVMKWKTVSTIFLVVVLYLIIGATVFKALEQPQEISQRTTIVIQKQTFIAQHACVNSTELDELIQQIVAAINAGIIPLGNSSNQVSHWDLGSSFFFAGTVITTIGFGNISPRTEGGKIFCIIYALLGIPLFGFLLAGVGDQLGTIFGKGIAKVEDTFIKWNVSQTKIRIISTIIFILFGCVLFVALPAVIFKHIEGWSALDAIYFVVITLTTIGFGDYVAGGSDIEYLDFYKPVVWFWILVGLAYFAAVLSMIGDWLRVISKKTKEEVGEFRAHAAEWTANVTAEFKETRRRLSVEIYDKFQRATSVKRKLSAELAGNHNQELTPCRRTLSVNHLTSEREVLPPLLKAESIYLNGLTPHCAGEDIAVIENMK

Results are given in words; binding and its absence hold for the method and conditions named. Binding seen in cells or lysates may run through a third protein. For part of these data: A result given as binding can be weak or reduced; the word gives no strength. Where a sequence is shown, tags or fusion partners need not be part of it.

B1: GFP-tagged β-COP (protein, UniProt Q9JIF7 1-953)
chain: MTAAENVCYTLINVPMDSEPPSEISLKNDLEKGDVKSKTEALKKVIIMILNGEKLPGLLMTIIRFVLPLQDHTIKKLLLVFWEIVPKTTPDGRLLHEMILVCDAYRKDLQHPNEFIRGSTLRFLCKLKEAELLEPLMPAIRACLEHRHSYVRRNAVLAIYTIYRNFEHLIPDAPELIHDFLVNEKDASCKRNAFMMLIHADQDRALDYLSTCIDQVQTFGDILQLVIVELIYKVCHANPSERARFIRCIYNLLQSSSPAVKYEAAGTLVTLSSAPTAIKAAAQCYIDLIIKESDNNVKLIVLDRLVELKEHPAHERVLQDLVMDILRVLSTPDLEVRKKTLQLALDLVSSRNVEELVIVLKKEVIKTNNVSEHEDTDKYRQLLVRTLHSCSVRFPDMAANVIPVLMEFLSDSNEAAAADVLEFVREAIQRFDNLRMLIVEKMLEVFHAIKSVKIYRGALWILGEYCSTKEDIQSVMTEVRRSLGEIPIVESEIKKEAGELKPEEEITVGPVQKLVTEMGTYATQSALSSSRPTKKEEDRPPLRGFLLDGDFFVAASLATTLTKIALRYVALVQEKKKQNSFVAEAMLLMATILHLGKSSLPKKPITDDDVDRISLCLKVLSECSPLMNDIFNKECRQSLSQMLSAKLEEEKLSQKKESEKRNVTVQPDDPISFMQLTAKNEMNCKEDQFQLSLLAAMGNTQRKEAADPLASKLNKVTQLTGFSDPVYAEAYVHVNQYDIVLDVLVVNQTSDTLQNCTLELATLGDLKLVEKPSPLTLAPHDFANIKANVKVASTENGIIFGNIVYDVSGAASDRNCVVLSDIHIDIMDYIQPATCTDAEFRQMWAEFEWENKVTVNTNMTDLNDYLQHILKSTNMKCLTPEKALSGYCGFMAANLYARSIFGEDALANVSIEKPVHQGPDAAVTGHIRIRAKSQGMALSLGDKINLSQKKTSL
Regarding B1, the binding entry is recorded as “binds” in experiment [1]; “no binding” in experiment [2]; “no binding” in experiment [3]; “binds” in experiment [4]; “binds” in experiment [5].

B2: VN-β-COP (N-terminal portion of Venus fused to β-COP) (protein, UniProt Q9JIF7 1-953)
chain: B1 chain
For the molecule B2, the binding result in experiment [6] is on record as “binds”.

(Values after article PMC9600989.)
